The results are deposited in PubChem (AID602201; NCATS, 2012).

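Tests whether compounds block coactivator recruitment by the ligand-activated VDR ligand-binding domain, using polarization of Texas Red emission near 615 nm after a two-hour incubation.
Five-point series from about 0.09 to 57 µM.
Potency is the fitted concentration giving half of the maximal inhibition; a lower value means a stronger inhibitor.
Calls follow a score built from curve class and fitted potency, where 0 is inactive, 1–39 inconclusive and 40–100 active; every row here is inconclusive, across full, partial and single-point curves.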

Values are in µM.
All entries here are filed as inconclusive.
Only part of the assay is shown, chiefly results filed as inconclusive.
Potencies fitted to partial, single-point or poorly fitting curves are rough.
Some entries filed as inconclusive have a full curve.
Activity scores are not listed here.

structure,tested on / at,potency (µM),curve as filed
Cc1ccc(C(=O)/C=C\C(=O)c2ccc(C)cc2)cc1,agonist-bound VDR ligand-binding domain,7.08,"inhibitor, partial curve, poor fit"
Cc1ccc(CN2C(=O)C(=O)c3cc(Br)cc(C)c32)cc1,agonist-bound VDR ligand-binding domain,39.81,"inhibitor, partial curve, poor fit"
O=[N+]([O-])c1ccc(Cl)c(S(=O)(=O)/N=C(/Sc2ccc(Br)cc2)c2ccccc2)c1,agonist-bound VDR ligand-binding domain,39.81,"inhibitor, single point"
CCOc1ccc(/C=C/[N+](=O)[O-])c2ccccc12,agonist-bound VDR ligand-binding domain,3.981,"inhibitor, single point"
CCOC(=O)c1nn(-c2ccccc2C)c(=O)c2c(N)scc12,agonist-bound VDR ligand-binding domain,2.239,"inhibitor, full curve"
COC(=O)[C@H](CCSC)NC(=O)c1cc2c(cn1)[nH]c1ccccc12,agonist-bound VDR ligand-binding domain,5.623,"inhibitor, single point"
CCOC(=O)N1CCN(C(c2cccnc2)c2ccc3cccnc3c2O)CC1 (stereo not given),agonist-bound VDR ligand-binding domain,3.548,"inhibitor, full curve"
COc1ccc2nc(S(=O)Cc3ncc(C)c(OC)c3C)[nH]c2c1 (stereo not given),agonist-bound VDR ligand-binding domain,35.48,"inhibitor, single point"
Cc1ccc(C(c2cc(Cl)c3cccnc3c2O)N2CCN(C)CC2)cc1 (stereo not given),agonist-bound VDR ligand-binding domain,2.512,"inhibitor, partial curve, poor fit"
COc1ccc(-n2c(SCC#N)nc3c(sc(=S)n3-c3ccccc3)c2=O)c(OC)c1,agonist-bound VDR ligand-binding domain,3.981,"inhibitor, full curve, poor fit"
Cc1ccc(-c2cc(C(=O)O)c3cc(Br)ccc3n2)o1,agonist-bound VDR ligand-binding domain,3.548,"inhibitor, full curve"
CCOC(=O)c1c(NC(=O)CSc2nnnn2-c2ccc(OC)cc2)sc(C)c1C,agonist-bound VDR ligand-binding domain,0.8913,"inhibitor, full curve, poor fit"
O=[N+]([O-])/C=C/c1cn(Cc2ccccc2)c2ccccc12,agonist-bound VDR ligand-binding domain,2.818,"inhibitor, single point"
CCC1C/C(=C\c2cccnc2)C(=O)/C(=C/c2cccnc2)C1 (stereo not given),agonist-bound VDR ligand-binding domain,3.162,"inhibitor, full curve"
CCOC(=O)c1ccc(NC(=O)c2nc(S(=O)(=O)Cc3ccccc3)ncc2Cl)cc1,agonist-bound VDR ligand-binding domain,3.162,"inhibitor, partial curve, poor fit"
O=C(CCN1CCN(c2ccccc2F)CC1)c1ccc(Br)cc1,agonist-bound VDR ligand-binding domain,7.943,"inhibitor, full curve"
Cc1ccc(CS(=O)(=O)c2ncc(Cl)c(C(=O)Nc3nnc(C(C)C)s3)n2)cc1,agonist-bound VDR ligand-binding domain,39.81,"inhibitor, single point"
O=C(/C=C/c1ccc(OCc2ccccc2)c(OCc2ccccc2)c1)c1cccnc1,agonist-bound VDR ligand-binding domain,3.162,"inhibitor, full curve"

The last 2 entries again:

Cc1ccc(CS(=O)(=O)c2ncc(Cl)c(C(=O)Nc3nnc(C(C)C)s3)n2)cc1 [agonist-bound VDR ligand-binding domain] gave potency 39.81 µM (inhibitor, single point).
O=C(/C=C/c1ccc(OCc2ccccc2)c(OCc2ccccc2)c1)c1cccnc1 [agonist-bound VDR ligand-binding domain] gave potency 3.162 µM (inhibitor, full curve).